Measurements reported in the supplement of paper PMC10849652.
Some of the results follow.

Sequences of proteins named here, by UniProt entry; tags and fusion partners are left off. A change or cut given only in a name is not applied to a line headed by its entry.
UniProt Q8TAT6: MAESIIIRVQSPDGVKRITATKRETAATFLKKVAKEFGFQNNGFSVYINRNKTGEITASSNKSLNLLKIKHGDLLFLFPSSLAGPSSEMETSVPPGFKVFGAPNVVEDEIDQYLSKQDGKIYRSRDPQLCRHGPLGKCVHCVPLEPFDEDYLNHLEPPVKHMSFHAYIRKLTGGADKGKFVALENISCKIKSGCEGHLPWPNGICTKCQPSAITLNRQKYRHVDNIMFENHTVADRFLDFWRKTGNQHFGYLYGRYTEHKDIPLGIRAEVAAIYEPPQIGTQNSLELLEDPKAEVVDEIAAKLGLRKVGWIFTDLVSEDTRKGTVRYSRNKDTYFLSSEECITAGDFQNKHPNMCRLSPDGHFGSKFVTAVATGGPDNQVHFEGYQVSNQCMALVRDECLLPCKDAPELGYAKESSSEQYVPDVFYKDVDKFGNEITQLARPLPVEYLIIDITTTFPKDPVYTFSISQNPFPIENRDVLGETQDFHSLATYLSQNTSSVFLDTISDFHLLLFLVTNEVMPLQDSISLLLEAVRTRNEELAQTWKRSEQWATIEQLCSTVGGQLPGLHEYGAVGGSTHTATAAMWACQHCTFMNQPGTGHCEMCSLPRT
UniProt P16083: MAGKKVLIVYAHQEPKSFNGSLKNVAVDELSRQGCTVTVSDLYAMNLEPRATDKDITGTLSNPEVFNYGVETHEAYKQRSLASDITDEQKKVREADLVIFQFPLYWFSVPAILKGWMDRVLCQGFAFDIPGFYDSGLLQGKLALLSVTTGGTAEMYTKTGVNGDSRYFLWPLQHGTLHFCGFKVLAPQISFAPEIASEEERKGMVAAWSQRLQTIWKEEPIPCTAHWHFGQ
UniProt P08651, whole entry, looked up: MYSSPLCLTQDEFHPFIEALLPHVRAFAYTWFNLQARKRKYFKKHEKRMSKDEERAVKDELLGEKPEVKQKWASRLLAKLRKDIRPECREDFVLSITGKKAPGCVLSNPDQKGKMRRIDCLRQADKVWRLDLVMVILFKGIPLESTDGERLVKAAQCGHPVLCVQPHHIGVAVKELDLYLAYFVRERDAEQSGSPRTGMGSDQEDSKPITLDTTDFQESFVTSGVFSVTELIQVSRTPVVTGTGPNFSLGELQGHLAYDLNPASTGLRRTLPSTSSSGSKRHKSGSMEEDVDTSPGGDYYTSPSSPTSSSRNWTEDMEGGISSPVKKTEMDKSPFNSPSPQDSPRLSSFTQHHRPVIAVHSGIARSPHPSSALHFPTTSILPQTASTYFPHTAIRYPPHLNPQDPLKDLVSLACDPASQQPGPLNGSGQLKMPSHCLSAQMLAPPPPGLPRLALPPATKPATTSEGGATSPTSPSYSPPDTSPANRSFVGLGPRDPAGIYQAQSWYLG
UniProt Q13287: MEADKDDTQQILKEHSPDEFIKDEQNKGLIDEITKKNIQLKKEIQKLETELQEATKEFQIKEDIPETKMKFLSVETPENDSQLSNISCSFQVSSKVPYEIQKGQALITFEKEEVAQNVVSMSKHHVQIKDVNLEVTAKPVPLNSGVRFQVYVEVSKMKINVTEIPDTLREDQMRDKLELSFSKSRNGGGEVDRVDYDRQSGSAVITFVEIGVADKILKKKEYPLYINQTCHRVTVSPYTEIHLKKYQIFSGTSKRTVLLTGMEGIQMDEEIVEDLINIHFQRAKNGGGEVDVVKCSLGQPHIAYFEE
UniProt Q9H9Q4: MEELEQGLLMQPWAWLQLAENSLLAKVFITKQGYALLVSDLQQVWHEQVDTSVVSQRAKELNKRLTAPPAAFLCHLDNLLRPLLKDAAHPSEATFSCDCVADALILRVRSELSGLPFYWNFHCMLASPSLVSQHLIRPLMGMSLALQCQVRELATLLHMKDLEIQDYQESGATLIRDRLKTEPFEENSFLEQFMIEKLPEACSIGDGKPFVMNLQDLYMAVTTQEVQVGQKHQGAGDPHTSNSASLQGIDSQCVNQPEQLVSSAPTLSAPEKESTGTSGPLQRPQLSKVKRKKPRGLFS
UniProt Q12857, whole entry, looked up: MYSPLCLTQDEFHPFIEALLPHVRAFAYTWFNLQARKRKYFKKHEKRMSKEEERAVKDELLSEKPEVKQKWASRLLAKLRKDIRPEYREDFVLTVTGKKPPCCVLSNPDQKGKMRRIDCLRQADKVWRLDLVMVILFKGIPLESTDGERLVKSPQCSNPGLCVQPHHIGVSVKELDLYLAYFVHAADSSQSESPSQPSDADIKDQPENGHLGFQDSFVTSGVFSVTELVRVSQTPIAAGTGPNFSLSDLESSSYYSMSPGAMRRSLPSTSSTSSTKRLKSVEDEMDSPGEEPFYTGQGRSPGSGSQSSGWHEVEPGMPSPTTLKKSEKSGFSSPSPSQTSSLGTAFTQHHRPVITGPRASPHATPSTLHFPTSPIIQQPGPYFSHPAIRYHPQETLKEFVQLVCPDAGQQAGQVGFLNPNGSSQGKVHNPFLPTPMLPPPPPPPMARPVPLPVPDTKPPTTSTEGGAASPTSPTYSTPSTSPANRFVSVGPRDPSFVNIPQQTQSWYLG
UniProt Q15653: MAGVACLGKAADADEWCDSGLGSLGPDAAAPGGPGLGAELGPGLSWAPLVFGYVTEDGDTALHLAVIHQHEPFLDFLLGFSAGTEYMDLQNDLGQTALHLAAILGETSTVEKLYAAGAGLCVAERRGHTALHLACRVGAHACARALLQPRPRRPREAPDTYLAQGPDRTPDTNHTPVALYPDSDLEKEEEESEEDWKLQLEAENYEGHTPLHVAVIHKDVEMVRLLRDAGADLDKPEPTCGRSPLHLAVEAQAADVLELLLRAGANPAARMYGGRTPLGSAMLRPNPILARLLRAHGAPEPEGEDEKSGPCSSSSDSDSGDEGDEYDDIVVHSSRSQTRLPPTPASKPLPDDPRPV
UniProt Q9Y221: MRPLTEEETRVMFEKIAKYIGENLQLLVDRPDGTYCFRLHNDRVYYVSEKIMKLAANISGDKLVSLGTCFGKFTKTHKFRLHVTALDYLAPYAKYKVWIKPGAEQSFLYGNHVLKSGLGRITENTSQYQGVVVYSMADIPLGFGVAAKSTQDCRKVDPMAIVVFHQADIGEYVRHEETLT
UniProt Q9BYT8, whole entry, looked up: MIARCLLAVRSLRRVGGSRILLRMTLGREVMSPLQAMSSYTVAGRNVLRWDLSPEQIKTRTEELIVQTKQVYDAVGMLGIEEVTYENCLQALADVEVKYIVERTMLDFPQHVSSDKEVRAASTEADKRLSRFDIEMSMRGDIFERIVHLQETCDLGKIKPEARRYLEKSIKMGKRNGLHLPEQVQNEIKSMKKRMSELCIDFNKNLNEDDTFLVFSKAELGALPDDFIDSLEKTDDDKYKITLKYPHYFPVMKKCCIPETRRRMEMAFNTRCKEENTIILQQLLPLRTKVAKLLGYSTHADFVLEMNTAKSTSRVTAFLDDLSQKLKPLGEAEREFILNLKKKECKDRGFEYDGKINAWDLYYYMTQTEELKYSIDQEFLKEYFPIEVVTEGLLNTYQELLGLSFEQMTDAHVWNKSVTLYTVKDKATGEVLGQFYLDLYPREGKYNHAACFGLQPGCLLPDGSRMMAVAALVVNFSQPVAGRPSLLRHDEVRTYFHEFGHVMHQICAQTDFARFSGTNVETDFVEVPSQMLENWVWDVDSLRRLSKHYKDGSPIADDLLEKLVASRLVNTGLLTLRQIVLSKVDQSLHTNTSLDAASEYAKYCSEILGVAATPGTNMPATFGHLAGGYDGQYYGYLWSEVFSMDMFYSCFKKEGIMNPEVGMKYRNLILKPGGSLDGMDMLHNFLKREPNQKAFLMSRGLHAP
UniProt Q9UFN0: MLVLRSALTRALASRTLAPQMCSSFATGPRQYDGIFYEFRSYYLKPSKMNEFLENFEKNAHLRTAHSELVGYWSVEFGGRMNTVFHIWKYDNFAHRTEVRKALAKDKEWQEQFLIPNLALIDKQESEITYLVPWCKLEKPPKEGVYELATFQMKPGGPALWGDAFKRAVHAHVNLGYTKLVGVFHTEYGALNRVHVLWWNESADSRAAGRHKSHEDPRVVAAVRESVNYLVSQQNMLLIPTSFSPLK
UniProt O60524: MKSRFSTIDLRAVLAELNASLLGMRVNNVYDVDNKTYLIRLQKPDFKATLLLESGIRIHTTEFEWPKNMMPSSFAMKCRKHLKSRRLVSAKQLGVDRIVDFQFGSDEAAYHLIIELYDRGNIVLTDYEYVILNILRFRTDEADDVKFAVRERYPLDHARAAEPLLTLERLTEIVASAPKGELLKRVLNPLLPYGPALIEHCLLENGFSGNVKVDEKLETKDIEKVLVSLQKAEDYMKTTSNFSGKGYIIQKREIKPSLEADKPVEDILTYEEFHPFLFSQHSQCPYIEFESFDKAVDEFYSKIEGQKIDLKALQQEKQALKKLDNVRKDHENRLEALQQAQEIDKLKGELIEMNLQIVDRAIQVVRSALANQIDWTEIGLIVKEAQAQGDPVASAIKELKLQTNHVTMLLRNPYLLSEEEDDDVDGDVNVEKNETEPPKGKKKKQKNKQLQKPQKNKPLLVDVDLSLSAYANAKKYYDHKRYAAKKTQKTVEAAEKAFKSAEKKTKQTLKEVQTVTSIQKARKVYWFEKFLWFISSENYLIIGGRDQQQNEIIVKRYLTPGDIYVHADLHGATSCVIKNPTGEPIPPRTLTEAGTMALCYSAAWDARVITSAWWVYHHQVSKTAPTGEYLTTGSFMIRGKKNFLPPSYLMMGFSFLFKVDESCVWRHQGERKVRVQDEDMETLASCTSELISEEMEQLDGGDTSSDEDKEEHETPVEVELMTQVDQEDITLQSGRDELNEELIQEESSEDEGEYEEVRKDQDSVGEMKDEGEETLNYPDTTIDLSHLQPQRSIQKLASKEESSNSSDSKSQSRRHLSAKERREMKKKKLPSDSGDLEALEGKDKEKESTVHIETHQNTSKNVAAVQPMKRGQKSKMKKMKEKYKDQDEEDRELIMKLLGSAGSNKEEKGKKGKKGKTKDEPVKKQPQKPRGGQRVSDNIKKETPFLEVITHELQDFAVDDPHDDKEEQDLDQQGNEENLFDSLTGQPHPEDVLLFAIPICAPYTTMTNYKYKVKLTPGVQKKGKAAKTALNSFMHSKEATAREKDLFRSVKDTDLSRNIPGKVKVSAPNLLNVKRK
UniProt Q9NX24: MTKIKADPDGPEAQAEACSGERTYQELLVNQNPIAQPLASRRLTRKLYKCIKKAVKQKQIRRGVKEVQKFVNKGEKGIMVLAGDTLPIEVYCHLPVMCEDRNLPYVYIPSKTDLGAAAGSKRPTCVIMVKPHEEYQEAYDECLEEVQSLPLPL
UniProt Q9NQR4: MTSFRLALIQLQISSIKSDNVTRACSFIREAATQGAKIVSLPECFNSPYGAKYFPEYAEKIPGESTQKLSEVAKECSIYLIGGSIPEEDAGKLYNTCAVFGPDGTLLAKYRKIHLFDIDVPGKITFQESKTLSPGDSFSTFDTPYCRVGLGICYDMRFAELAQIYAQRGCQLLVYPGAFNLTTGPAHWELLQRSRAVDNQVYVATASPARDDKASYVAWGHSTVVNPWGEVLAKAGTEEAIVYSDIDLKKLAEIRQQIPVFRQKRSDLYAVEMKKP
UniProt P35240: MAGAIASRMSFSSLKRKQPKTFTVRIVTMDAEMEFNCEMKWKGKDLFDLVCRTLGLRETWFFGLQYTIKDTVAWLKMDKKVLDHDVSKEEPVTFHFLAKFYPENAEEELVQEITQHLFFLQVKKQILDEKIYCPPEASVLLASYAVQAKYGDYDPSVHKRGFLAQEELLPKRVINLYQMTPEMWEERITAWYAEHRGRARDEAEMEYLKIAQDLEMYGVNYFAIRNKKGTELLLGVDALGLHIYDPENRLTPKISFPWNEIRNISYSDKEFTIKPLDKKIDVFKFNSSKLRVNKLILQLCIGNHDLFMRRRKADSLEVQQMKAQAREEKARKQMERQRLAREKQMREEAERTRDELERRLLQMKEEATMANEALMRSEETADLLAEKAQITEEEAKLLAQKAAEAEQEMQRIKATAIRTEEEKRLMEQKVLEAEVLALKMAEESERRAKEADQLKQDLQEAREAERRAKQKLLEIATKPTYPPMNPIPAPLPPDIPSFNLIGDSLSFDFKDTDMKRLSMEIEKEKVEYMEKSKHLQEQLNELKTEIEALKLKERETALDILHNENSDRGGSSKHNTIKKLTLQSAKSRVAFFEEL
UniProt Q9BYG3: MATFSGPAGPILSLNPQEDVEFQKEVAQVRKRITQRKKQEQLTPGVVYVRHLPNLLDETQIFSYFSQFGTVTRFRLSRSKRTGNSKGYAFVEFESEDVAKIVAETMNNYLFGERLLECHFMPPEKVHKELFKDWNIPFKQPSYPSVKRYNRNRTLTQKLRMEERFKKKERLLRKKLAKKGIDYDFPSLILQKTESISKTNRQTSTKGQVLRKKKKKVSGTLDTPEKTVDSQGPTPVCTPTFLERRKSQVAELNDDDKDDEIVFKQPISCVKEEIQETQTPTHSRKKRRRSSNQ

Legend:
Experiment in all cases: log2 fold change, soluble protein after heating vs DMSO (PISA); higher = thermal stabilisation; K562 cells, 10 uM, 30 min; active = over 0.2 and 3.5 SD of the protein, either way, in both replicates (recomputed)
[1] = compound: CC1=C(C=C(C=C1)NC(=O)C2=CC(=CC=C2)C(C)(C)C#N)NC3=CC4=C(C=C3)N=CN(C4=O)C
Procedure, shortened: (§1)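 K562 cells at 2×10^6 cells/mL were given 10 μM compound for 30 min. Aliquots then went through 3 min of heating across 48°C-58°C, were pooled, and were extracted in PBS with 0.5% NP-40 at 4°C, and the supernatant after 21,000xg for 90 min was quantified by TMTpro 16plex LC-MS/MS with channel sums equalised. Thermal stability relative to control samples, from duplicates, is given as log2 fold change.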

[2] = compound: CC1=C(C=C(C=C1)NC(=O)C2=CC(=CC=C2)N(C)C)NC(=O)C3=CC=C(C=C3)O
Procedure, shortened: as §1

[3] = compound: CC1=CC=C(C=C1)SC2=C3C=C(SC3=CN=C2)C(=O)N
Procedure, shortened: as §1

[4] = compound: CC1=NC(=CC=C1)C2=C(N=C(N2)C(C)(C)C)C3=CC4=NC=CN=C4C=C3
Procedure, shortened: as §1

Nexturastat A = compound: CCCCN(Cc1ccc(C(=O)NO)cc1)C(=O)Nc1ccccc1 [Nexturastat A]
Procedure, shortened: as §1

vemurafenib = compound: CCCS(=O)(=O)Nc1ccc(F)c(C(=O)c2c[nH]c3ncc(-c4ccc(Cl)cc4)cc23)c1F [vemurafenib]
Procedure, shortened: as §1

[5] = compound: CCCS(=O)(=O)Nc1ccc(F)c(C(=O)c2c[nH]c3ncc(Cl)cc23)c1F
Procedure, shortened: as §1

[6] = compound: CCCc1cc(C)[nH]c(=O)c1CNC(=O)c1cc(-c2ccnc(N3CCN(C)CC3)c2)cc2c1cnn2C(C)C
Procedure, shortened: as §1

givinostat = compound: CCN(CC)Cc1ccc2cc(COC(=O)Nc3ccc(C(=O)NO)cc3)ccc2c1 [givinostat]
Procedure, shortened: as §1

barasertib = compound: CCN(CCCOc1ccc2c(Nc3cc(CC(=O)Nc4cccc(F)c4)[nH]n3)ncnc2c1)CCOP(=O)(O)O [barasertib]
Procedure, shortened: as §1

[7] = compound: CC[C@@H]1C(=O)N(C)c2cnc(Nc3ccc(C(=O)NC4CCN(C)CC4)cc3OC)nc2N1C1CCCC1
Procedure, shortened: as §1

volasertib = compound: CC[C@@H]1C(=O)N(C)c2cnc(Nc3ccc(C(=O)N[C@H]4CC[C@H](N5CCN(CC6CC6)CC5)CC4)cc3OC)nc2N1C(C)C [volasertib]
Procedure, shortened: as §1

[8] = compound: CC[C@H](C)N1C=C(C2=C(C=C(C=C21)C3=CN=C(C=C3)N4CCNCC4)C(=O)NCC5=C(C=C(NC5=O)C)C)C
Procedure, shortened: as §1

epoxomicin = compound: CC[C@H](C)[C@@H](C(=O)N[C@@H]([C@@H](C)O)C(=O)N[C@@H](CC(C)C)C(=O)[C@]1(CO1)C)NC(=O)[C@H]([C@@H](C)CC)N(C)C(=O)C [epoxomicin]
Procedure, shortened: as §1

[9] = compound: CCn1c(C(=O)N(C2CC2)C2CC2)cc2c3c(ncn3C)c(Nc3cc(C)n(C)n3)nc21
Procedure, shortened: as §1

[10] = compound: CCn1cc(-c2ccnc3[nH]c(-c4cccc(CN(C)C)c4)cc23)c(-c2ccc(NC(=O)N(C)C)cc2)n1
Procedure, shortened: as §1

[11] = compound: CN(C)CC(=O)Nc1ccc2[nH]c(=O)c3ccccc3c2c1
Procedure, shortened: as §1

rosiglitazone = compound: CN(CCOC1=CC=C(C=C1)C[C@H]2C(=O)NC(=O)S2)C3=CC=CC=N3 (racemic) [rosiglitazone]
Procedure, shortened: as §1

[12] = compound: CN1C2=C(C3=C1C(=O)N(N=C3)CC4=CC(=CC=C4)N)SC(=C2)S(=O)C
Procedure, shortened: as §1

[13] = compound: CN1CCC(CNc2ccc3ncc(-c4cccc(OC(F)(F)F)c4)n3n2)CC1
Procedure, shortened: as §1

Measured: log2 fold change

NPLOC4 isoform 2 (UniProt Q8TAT6)
inactive: [1] -0.032 | [2] 0.006 | [3] -0.018 | [4] 0.017 | Nexturastat A -0.027 | vemurafenib -0.022 | [5] 0.008 | [6] -0.016 | givinostat 0.034 | barasertib 0.017 | [7] 0.037 | volasertib 0.003 | [8] 0.023 | epoxomicin 0.013 | [9] -0.04 | [10] -0.027 | [11] -0.013 | rosiglitazone 0.014 | [12] -0.071 | [13] -0.028

NQO2 (UniProt P16083)
inactive: [1] -0.02 | [2] 0.018 | [3] 0.009 | [4] -0.006 | Nexturastat A -0.003 | vemurafenib -0.012 | [5] -0.044 | [6] -0.028 | givinostat -0.032 | barasertib 0.001 | [7] -0.001 | volasertib 0.068 | [8] -0.045 | epoxomicin -0.039 | [9] 0.03 | [10] -0.038 | [11] -0.035 | rosiglitazone -0.033 | [12] -0.046 | [13] 0.02

NFIC (UniProt P08651)
inactive: [1] -0.064 | [2] 0.076 | [3] -0.022 | [4] 0.008 | Nexturastat A 0.133 | vemurafenib -0.076 | [5] -0.013 | [6] -0.046 | givinostat -0.11 | barasertib -0.018 | [7] 0.16 | volasertib 0.173 | [8] -0.037 | epoxomicin 0.111 | [9] 0.027 | [10] 0.005 | [11] -0.115 | rosiglitazone -0.015 | [12] -0.025 | [13] 0.04

NMI (UniProt Q13287)
inactive: [1] -0.017 | [2] 0.014 | [3] 0.012 | [4] 0.011 | Nexturastat A -0.038 | vemurafenib -0.035 | [5] 0.008 | [6] -0.046 | givinostat -0.02 | barasertib 0.013 | [7] 0.029 | volasertib 0.012 | [8] -0.027 | epoxomicin 0.048 | [9] 0.004 | [10] -0.013 | [11] -0.022 | rosiglitazone 0.032 | [12] -0.045 | [13] -0.082

NHEJ1 (UniProt Q9H9Q4)
inactive: [1] -0.013 | [2] -0.055 | [3] 0.074 | [4] 0.066 | Nexturastat A -0.007 | vemurafenib -0.098 | [5] 0.201 | [6] -0.398 | givinostat 0.007 | barasertib -0.082 | [7] -0.129 | volasertib -0.145 | [8] -0.047 | epoxomicin 0.088 | [9] 0.01 | [10] -0.039 | [11] -0.075 | rosiglitazone 0.134 | [12] -0.101 | [13] 0.046

NRAS (UniProt P01111)
inactive: [1] -0.062 | [2] -0.001 | [3] -0.028 | [4] 0.004 | Nexturastat A -0.011 | vemurafenib 0.025 | [5] -0.028 | [6] 0.017 | givinostat -0.018 | barasertib -0.038 | [7] 0.055 | volasertib 0.071 | [8] -0.002 | epoxomicin -0.035 | [9] 0.026 | [10] 0 | [11] -0.014 | rosiglitazone 0.001 | [12] -0.1 | [13] 0.091

NFIA isoform 4 (UniProt Q12857)
inactive: [1] -0.069 | [2] 0.048 | [3] -0.011 | [4] 0.037 | Nexturastat A -0.001 | vemurafenib -0.02 | [5] -0.026 | [6] -0.016 | givinostat -0.186 | barasertib -0.021 | [7] 0.149 | volasertib 0.065 | [8] -0.043 | epoxomicin 0.014 | [9] -0.066 | [10] 0.084 | [11] -0.068 | rosiglitazone -0.012 | [12] -0.058 | [13] 0.046

NFKBIB (UniProt Q15653)
inactive: [1] 0.027 | [2] -0.061 | [3] 0.021 | [4] 0 | Nexturastat A 0.031 | vemurafenib 0.013 | [5] 0.046 | [6] 0.031 | givinostat -0.025 | barasertib -0.011 | [7] -0.108 | volasertib -0.11 | [8] 0 | epoxomicin 0.01 | [9] 0.034 | [10] -0.026 | [11] -0.014 | rosiglitazone 0.012 | [12] -0.082 | [13] 0.015

NIP7 (UniProt Q9Y221)
inactive: [1] 0.055 | [2] -0.065 | [3] -0.004 | [4] -0.101 | Nexturastat A 0.213 | vemurafenib -0.103 | [5] -0.006 | [6] -0.161 | givinostat 0.083 | barasertib -0.03 | [7] 0.156 | volasertib 0.224 | [8] -0.065 | epoxomicin -0.231 | [9] -0.148 | [10] 0.131 | [11] -0.109 | rosiglitazone -0.039 | [12] 0.272 | [13] 0.277

NLN (UniProt Q9BYT8)
inactive: [1] -0.03 | [2] 0.005 | [3] -0.002 | [4] 0.016 | Nexturastat A 0.029 | vemurafenib -0.036 | [5] -0.009 | [6] -0.024 | givinostat 0.154 | barasertib -0.003 | [7] 0.017 | volasertib 0.041 | [8] -0.001 | epoxomicin 0.056 | [9] -0.027 | [10] -0.064 | [11] -0.01 | rosiglitazone -0.002 | [12] -0.025 | [13] -0.044

NIPSNAP3A (UniProt Q9UFN0)
inactive: [1] -0.001 | [2] 0.013 | [3] -0.002 | [4] -0.019 | Nexturastat A 0.015 | vemurafenib 0.026 | [5] -0.02 | [6] -0.036 | givinostat 0.026 | barasertib 0.005 | [7] 0.034 | volasertib 0.01 | [8] -0.003 | epoxomicin 0.013 | [9] 0.013 | [10] 0.062 | [11] -0.041 | rosiglitazone -0.055 | [12] -0.032 | [13] 0.077

5 successive records from above, quoted:
NMI (UniProt Q13287)
inactive: [1] -0.017 | [2] 0.014 | [3] 0.012 | [4] 0.011 | Nexturastat A -0.038 | vemurafenib -0.035 | [5] 0.008 | [6] -0.046 | givinostat -0.02 | barasertib 0.013 | [7] 0.029 | volasertib 0.012 | [8] -0.027 | epoxomicin 0.048 | [9] 0.004 | [10] -0.013 | [11] -0.022 | rosiglitazone 0.032 | [12] -0.045 | [13] -0.082

NHEJ1 (UniProt Q9H9Q4)
inactive: [1] -0.013 | [2] -0.055 | [3] 0.074 | [4] 0.066 | Nexturastat A -0.007 | vemurafenib -0.098 | [5] 0.201 | [6] -0.398 | givinostat 0.007 | barasertib -0.082 | [7] -0.129 | volasertib -0.145 | [8] -0.047 | epoxomicin 0.088 | [9] 0.01 | [10] -0.039 | [11] -0.075 | rosiglitazone 0.134 | [12] -0.101 | [13] 0.046

NRAS (UniProt P01111)
inactive: [1] -0.062 | [2] -0.001 | [3] -0.028 | [4] 0.004 | Nexturastat A -0.011 | vemurafenib 0.025 | [5] -0.028 | [6] 0.017 | givinostat -0.018 | barasertib -0.038 | [7] 0.055 | volasertib 0.071 | [8] -0.002 | epoxomicin -0.035 | [9] 0.026 | [10] 0 | [11] -0.014 | rosiglitazone 0.001 | [12] -0.1 | [13] 0.091

NFIA isoform 4 (UniProt Q12857)
inactive: [1] -0.069 | [2] 0.048 | [3] -0.011 | [4] 0.037 | Nexturastat A -0.001 | vemurafenib -0.02 | [5] -0.026 | [6] -0.016 | givinostat -0.186 | barasertib -0.021 | [7] 0.149 | volasertib 0.065 | [8] -0.043 | epoxomicin 0.014 | [9] -0.066 | [10] 0.084 | [11] -0.068 | rosiglitazone -0.012 | [12] -0.058 | [13] 0.046

NFKBIB (UniProt Q15653)
inactive: [1] 0.027 | [2] -0.061 | [3] 0.021 | [4] 0 | Nexturastat A 0.031 | vemurafenib 0.013 | [5] 0.046 | [6] 0.031 | givinostat -0.025 | barasertib -0.011 | [7] -0.108 | volasertib -0.11 | [8] 0 | epoxomicin 0.01 | [9] 0.034 | [10] -0.026 | [11] -0.014 | rosiglitazone 0.012 | [12] -0.082 | [13] 0.015

(listing goes on)

NEMF (UniProt O60524)
inactive: [1] 0.051 | [2] -0.043 | [3] -0.159 | [4] -0.095 | Nexturastat A 0.281 | vemurafenib -0.032 | [5] -0.031 | [6] 0.116 | givinostat 0.141 | barasertib -0.006 | [7] 0.228 | volasertib 0.261 | [8] 0.05 | epoxomicin -0.338 | [9] -0.073 | [10] 0.129 | [11] -0.084 | rosiglitazone -0.089 | [12] 0.344 | [13] 0.15

NHP2 (UniProt Q9NX24)
inactive: [1] -0.023 | [2] -0.03 | [3] -0.042 | [4] -0.052 | Nexturastat A 0.131 | vemurafenib -0.082 | [5] -0.056 | [6] -0.063 | givinostat -0.007 | barasertib -0.086 | [7] 0.213 | volasertib 0.117 | [8] -0.021 | epoxomicin -0.131 | [9] 0.022 | [10] 0.079 | [11] -0.076 | rosiglitazone -0.066 | [12] 0.158 | [13] 0.137

NIT2 (UniProt Q9NQR4)
inactive: [1] -0.036 | [2] 0.027 | [3] 0.004 | [4] 0.02 | Nexturastat A -0.04 | vemurafenib -0.006 | [5] -0.028 | [6] -0.054 | givinostat -0.045 | barasertib 0.024 | [7] 0.01 | volasertib 0.043 | [8] -0.015 | epoxomicin 0.007 | [9] -0.002 | [10] -0.037 | [11] 0.005 | rosiglitazone 0.014 | [12] -0.087 | [13] -0.036

NF2 (UniProt P35240)
inactive: [1] 0.088 | [2] 0.048 | [3] -0.024 | [4] -0.025 | Nexturastat A -0.011 | vemurafenib 0.019 | [5] 0.015 | [6] 0.019 | givinostat 0.111 | barasertib -0.036 | [7] -0.003 | volasertib -0.109 | [8] 0.035 | epoxomicin -0.015 | [9] -0.027 | [10] -0.048 | [11] -0.018 | rosiglitazone 0.014 | [12] -0.03 | [13] -0.008

NIFK (UniProt Q9BYG3)
inactive: [1] 0.003 | [2] 0.021 | [3] -0.171 | [4] -0.122 | Nexturastat A 0.305 | vemurafenib 0.026 | [5] 0 | [6] 0.11 | givinostat 0.177 | barasertib 0.039 | [7] 0.077 | volasertib 0.15 | [8] -0.009 | epoxomicin -0.242 | [9] 0.01 | [10] 0.181 | [11] -0.112 | rosiglitazone -0.136 | [12] 0.222 | [13] 0.226
